Counter-ions that a name gives are not always drawn. Some of the results follow. The calls rarely recur for the same compound in another form.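 Kinases, fused to nanoluciferase, were expressed in K562 cells; luminescence was measured every 4 h from 2 to 18 h as percent of control (DMSO = 100%, positive control = 0%). A time point is decreased if signal falls significantly (2 sigma). Hits were called by the authors by a rule that is not shown; the count of time points alone does not decide it.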
target: PIK4CA (UniProt P42356); assay: number of time points (of 5) at which kinase-Nluc abundance scored as decreased, DMSO-normalised (count); higher = more persistent destabilization; details: K562; 2-18 h

Amino acid sequences for entries named in this document (tags omitted).
UniProt P42356, whole entry, looked up: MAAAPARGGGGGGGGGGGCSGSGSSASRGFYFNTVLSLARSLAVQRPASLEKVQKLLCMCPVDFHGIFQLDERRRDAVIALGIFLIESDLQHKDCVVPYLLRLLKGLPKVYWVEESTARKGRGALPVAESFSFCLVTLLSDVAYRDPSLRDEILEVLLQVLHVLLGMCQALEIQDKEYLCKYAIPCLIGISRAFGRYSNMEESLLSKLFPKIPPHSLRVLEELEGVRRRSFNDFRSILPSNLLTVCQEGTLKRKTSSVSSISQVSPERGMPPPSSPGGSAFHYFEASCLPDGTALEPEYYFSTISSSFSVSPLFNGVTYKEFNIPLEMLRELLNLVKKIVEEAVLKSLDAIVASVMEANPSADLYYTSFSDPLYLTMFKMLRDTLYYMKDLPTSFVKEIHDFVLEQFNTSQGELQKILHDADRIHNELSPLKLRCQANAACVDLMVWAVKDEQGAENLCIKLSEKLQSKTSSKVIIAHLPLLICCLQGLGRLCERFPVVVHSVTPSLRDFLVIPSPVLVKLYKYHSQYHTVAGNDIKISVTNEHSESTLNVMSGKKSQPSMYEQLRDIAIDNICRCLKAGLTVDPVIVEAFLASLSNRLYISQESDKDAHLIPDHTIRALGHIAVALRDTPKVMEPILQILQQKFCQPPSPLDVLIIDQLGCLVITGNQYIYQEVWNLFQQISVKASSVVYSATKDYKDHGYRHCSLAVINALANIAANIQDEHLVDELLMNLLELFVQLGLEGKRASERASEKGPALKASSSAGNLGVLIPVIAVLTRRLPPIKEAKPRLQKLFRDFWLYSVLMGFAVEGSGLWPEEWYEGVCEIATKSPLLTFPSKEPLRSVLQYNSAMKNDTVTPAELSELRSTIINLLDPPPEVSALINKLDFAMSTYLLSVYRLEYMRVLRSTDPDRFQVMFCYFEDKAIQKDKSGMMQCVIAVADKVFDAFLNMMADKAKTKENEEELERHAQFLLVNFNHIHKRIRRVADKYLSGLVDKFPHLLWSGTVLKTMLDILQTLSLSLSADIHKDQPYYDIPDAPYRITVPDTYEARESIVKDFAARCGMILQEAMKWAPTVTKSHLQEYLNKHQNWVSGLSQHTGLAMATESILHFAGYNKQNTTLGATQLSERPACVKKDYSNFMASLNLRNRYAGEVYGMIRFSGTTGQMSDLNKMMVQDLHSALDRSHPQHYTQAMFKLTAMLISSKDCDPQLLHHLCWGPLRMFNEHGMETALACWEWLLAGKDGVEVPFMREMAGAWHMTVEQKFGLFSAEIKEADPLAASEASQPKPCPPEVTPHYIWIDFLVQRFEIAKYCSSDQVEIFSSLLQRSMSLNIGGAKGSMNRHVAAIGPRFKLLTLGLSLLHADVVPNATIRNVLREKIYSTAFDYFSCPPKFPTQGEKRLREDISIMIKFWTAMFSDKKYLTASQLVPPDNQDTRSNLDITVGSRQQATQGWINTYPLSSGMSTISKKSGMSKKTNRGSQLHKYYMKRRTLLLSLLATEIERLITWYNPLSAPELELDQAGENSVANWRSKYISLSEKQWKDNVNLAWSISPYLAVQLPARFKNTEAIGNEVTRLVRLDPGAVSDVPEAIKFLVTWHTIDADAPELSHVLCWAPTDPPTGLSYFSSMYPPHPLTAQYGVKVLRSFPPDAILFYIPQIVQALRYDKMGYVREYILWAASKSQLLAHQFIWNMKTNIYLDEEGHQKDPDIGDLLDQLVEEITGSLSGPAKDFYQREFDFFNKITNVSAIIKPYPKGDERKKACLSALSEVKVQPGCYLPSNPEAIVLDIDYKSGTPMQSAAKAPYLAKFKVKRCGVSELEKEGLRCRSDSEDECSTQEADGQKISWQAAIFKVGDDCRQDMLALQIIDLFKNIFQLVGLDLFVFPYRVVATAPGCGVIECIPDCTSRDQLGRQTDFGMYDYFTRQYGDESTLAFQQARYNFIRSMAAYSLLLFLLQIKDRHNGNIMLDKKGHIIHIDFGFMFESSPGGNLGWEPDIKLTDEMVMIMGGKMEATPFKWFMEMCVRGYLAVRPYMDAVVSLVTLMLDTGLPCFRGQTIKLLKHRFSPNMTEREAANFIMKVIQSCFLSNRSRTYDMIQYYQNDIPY

Structure (SMILES)	number of time points
Cc1cc(=O)oc2c(C=O)c(O)ccc12 (10 µM)	0
Nc1nc(F)nc2c1ncn2[C@@H]1O[C@H](CO)[C@@H](O)[C@@H]1O [Fludarabine] (10 µM)	0
CC(C)(C)c1cc(O)ccc1O (10 µM)	0
COc1ccc(Cl)c(Nc2nc3ccccc3nc2NS(=O)(=O)c2cccc(NC(=O)C(C)(C)N)c2)c1 [Pilaralisib] (10 µM)	0
Cc1ccc(CNc2ncnc3ccc(-c4ccc(CO)o4)cc23)o1 (10 µM)	0
C=CC(=O)Nc1cccc(Nc2nc(Nc3ccc(N4CCN(C(C)=O)CC4)cc3OC)ncc2C(F)(F)F)c1 [Rociletinib] (10 µM)	0
Nc1ncnc2c1c(-c1cccc(OCc3ccccc3)c1)cn2C1CC(CN2CCC2)C1 (stereo not drawn) (2.5 µM)	0
Oc1cc(O)c2cc(O)c(-c3cc(O)c(O)c(O)c3)[o+]c2c1 [Delphinidin (chloride)] (10 µM)	0
CCCS(=O)(=O)Nc1ccc(F)c(C(=O)c2c[nH]c3ncc(-c4ccc(Cl)cc4)cc23)c1F [Vemurafenib] (10 µM)	0
COCCNc1nc2ccc(C#CC3(O)CCCCC3)cc2n1-c1ccnc(N)n1 (10 µM)	0
CCC(C)N1c2ccccc2C(=O)N(C)c2cnc(Nc3ccc(C(=O)N4CCC(N5CCN(C)CC5)CC4)cc3OC)nc21 (stereo not drawn) (2.5 µM)	0
Cc1cc(CN2CCN(c3c(Br)cnc4nc(-c5ccc(N6CCN(C)CC6)cc5)[nH]c34)CC2)no1 (2.5 µM)	0
O=C(CSC1=NCCN1)NC1CCCCCC1 [ICCB-19 (hydrochloride)] (2.5 µM)	0

2 of the compounds above, in markdown:

| Structure (SMILES) | number of time points |
| --- | --- |
| Nc1ncnc2c1c(-c1cccc(OCc3ccccc3)c1)cn2C1CC(CN2CCC2)C1 (stereo not drawn) (2.5 µM) | 0 |
| Oc1cc(O)c2cc(O)c(-c3cc(O)c(O)c(O)c3)[o+]c2c1 [Delphinidin (chloride)] (10 µM) | 0 |

Source: the supplement of paper PMC12823440, “Inhibitors supercharge kinase turnover through native proteolytic circuits” (Nature, 2025)
